{"sequences": {"note": "Sequences of proteins named here, by UniProt entry; tags and fusion partners are left off.", "UniProt Q9Y6J0": "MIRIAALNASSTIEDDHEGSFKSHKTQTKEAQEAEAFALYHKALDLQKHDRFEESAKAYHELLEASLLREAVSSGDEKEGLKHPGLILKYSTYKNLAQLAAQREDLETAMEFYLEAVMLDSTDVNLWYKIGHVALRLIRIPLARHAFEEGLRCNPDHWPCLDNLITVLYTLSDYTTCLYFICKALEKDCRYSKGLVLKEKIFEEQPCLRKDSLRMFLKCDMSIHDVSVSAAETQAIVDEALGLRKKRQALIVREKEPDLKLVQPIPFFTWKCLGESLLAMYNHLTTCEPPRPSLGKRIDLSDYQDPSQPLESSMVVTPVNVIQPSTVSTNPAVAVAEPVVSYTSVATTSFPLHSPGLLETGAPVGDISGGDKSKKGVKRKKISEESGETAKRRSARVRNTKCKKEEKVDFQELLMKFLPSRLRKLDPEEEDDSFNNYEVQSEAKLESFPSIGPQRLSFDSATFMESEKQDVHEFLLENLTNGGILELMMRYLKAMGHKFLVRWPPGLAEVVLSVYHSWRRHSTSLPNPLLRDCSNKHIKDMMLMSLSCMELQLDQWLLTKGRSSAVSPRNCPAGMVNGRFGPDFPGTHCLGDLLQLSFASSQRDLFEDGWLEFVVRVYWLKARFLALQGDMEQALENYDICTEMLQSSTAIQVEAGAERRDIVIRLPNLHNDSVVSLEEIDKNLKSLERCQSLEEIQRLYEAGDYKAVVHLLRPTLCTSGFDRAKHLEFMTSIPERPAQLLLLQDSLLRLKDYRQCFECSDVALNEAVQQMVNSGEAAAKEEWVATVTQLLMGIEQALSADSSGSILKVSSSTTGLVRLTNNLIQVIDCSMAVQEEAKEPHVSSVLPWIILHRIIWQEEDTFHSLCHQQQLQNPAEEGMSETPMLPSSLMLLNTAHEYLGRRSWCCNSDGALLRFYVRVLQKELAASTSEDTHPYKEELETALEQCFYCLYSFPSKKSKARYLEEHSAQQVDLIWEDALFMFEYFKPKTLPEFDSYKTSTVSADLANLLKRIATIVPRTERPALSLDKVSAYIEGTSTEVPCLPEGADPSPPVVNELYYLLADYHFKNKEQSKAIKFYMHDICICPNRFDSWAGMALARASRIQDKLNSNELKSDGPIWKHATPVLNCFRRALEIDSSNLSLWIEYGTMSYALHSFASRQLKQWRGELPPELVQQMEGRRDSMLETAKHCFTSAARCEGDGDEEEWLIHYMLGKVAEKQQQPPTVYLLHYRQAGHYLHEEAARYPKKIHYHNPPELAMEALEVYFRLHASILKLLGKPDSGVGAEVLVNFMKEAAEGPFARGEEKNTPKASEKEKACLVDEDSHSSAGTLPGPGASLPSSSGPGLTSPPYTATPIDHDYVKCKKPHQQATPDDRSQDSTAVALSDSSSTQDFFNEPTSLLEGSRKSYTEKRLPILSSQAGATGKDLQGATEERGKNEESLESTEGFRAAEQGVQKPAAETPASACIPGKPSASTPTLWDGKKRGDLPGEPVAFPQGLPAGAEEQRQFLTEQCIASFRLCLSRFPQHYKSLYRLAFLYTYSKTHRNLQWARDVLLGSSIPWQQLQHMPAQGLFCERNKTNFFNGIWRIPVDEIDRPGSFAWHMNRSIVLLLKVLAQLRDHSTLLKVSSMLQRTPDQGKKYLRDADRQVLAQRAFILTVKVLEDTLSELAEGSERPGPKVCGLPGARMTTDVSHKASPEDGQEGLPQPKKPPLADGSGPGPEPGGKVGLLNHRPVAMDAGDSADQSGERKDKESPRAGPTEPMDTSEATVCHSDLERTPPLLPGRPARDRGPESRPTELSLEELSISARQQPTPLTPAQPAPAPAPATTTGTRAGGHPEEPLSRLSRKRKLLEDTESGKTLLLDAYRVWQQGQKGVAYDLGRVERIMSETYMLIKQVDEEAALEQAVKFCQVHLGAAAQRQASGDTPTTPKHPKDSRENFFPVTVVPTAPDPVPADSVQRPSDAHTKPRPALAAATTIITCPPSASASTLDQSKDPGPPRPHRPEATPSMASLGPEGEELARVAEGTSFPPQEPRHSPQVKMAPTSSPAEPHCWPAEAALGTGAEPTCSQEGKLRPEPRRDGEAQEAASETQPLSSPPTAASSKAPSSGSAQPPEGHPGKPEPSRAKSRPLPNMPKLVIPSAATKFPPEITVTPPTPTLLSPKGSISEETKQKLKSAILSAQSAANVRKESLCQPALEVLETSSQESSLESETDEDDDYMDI", "UniProt Q16539": "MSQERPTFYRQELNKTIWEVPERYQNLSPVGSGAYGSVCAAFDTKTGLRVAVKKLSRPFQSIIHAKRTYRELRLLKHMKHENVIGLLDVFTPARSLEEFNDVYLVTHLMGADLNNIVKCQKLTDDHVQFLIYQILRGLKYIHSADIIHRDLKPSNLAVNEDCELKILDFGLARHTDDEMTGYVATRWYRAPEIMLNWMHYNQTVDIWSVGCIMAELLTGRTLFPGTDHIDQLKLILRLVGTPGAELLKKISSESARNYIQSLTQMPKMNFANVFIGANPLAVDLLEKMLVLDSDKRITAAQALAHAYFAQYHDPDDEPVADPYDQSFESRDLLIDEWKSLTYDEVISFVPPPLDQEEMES"}, "source": "patent US20240376163A1", "about": "“PEPTIDE FOR INHIBITING CALCINEURIN AND USE THEREOF” (Seoul National University R&DB Foundation, priority 2023, published 2024)", "biological_target": "HA-CABIN1 (UniProt Q9Y6J0)", "assay": "immunoprecipitation of Flag-MAPK and HA-CABIN1 in HEK293T cells", "note": "These are yes or no findings as the source states them, for the method shown. Some binding calls cover weakened binding; strength is not graded here."}
{"substance": "Flag-MAPK: p38a (from UniProt Q16539 1-360) (enzyme)", "values": [{"measurement": "binding", "result": "binds"}]}
